The exact form of at least one protein or probe is not confirmed. For some assays here: Where cells or extracts were used, other partners may take part.
Experiments:
Clusterin (Homo sapiens) = assay: pull-down; settings: 2'-F pyrimidines (2'-F-dCTP, 2'-F-dUTP in selection transcription); human islet lysate, magnetic bead capture and mass spectrometry (score 236); clusterin silencing reduced aptamer binding to beta cells; described as possible target; protein in an extract; label: 3' biotin
TMED6 (Homo sapiens) = TMED6 (Homo sapiens) (UniProt Q8WW62); assay: binding assay; settings: 2'-F pyrimidines (2'-F-dCTP, 2'-F-dUTP in selection transcription); protein array of >19,000 recombinant human proteins, Cy3-aptamer 1 ug, RT 30 min; TMED6 most likely ligand; purified recombinant protein; label: Cy3

Chains of the proteins cited; added tags and fusions are not shown. A line that says so, or that is headed by a name, gives the form on record, which may keep a tag or linker. Residues count along the entry.
UniProt Q8WW62, 22-240: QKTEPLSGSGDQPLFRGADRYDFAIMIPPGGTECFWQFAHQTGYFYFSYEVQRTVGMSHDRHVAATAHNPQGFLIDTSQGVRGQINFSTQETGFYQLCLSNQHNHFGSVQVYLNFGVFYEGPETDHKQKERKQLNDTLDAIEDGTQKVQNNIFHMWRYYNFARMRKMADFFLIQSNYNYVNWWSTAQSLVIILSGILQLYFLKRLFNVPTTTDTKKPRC
Clusterin (Homo sapiens), one chain, as listed by the source, chain 2 of 2: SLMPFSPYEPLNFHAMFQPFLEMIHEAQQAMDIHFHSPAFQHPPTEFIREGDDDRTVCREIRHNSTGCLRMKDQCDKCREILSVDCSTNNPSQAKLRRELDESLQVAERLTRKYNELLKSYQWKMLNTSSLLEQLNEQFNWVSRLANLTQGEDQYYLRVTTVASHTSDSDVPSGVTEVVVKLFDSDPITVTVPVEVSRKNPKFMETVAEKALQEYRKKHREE
Clusterin (Homo sapiens), one chain, as listed by the source, chain 1 of 2: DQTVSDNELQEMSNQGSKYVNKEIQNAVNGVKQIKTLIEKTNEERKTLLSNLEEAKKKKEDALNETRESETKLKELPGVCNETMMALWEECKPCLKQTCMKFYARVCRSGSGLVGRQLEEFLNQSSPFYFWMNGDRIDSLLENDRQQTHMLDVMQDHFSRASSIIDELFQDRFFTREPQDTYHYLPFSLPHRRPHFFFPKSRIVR

Sequence: GGAGGACGAUGCGGCAACAAACUAAUCAGACACGAGACAGAGAGAUAGAUCUGCCAGACGACUCGCUGAGGAUCCGAGA [m12-3773]
- binding result (Clusterin (Homo sapiens)): binds

Sequence: GGAGGACGAUGCGGUAAUUCUCAGGAGGUGCGGAACGGGAUAUGGAUUGUUCGCCAGACGACUCGCUGAGGAUCCGAGA [1-717]
- binding result (TMED6 (Homo sapiens)): binds

From US20210139907
